Values from PubChem BioAssay AID652259 (Drosophila RNAi Screening Center, 2013)

Test: 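Genome-wide hunt for genes that control Wingless pathway activity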 (primary screen)
Cell system: Drosophila clone 8 imaginal disc epithelial cells
Reagents: long dsRNA against Drosophila genes
Conditions: pathway stimulated by co-transfected Wingless expression plasmid
Detection: 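Firefly luciferase from a tcf-site Wingless reporter, measured alongside co-transfected Renilla luciferase that tracks transfection; pathway stimulated by a Wingless plasmid; the firefly-to-Renilla ratio is not deposited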
Reading the numbers: firefly reporter light: higher = more Wg reporter light, before normalisation; Renilla control light: higher = more transfected or surviving cells
Rule for the call: 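a knock-down is a candidate when at least two out of four statistical tests show it departing from its plate mean; one test alone signals a weak candidate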
Calls: active = candidate regulator (raises or lowers reporter); inactive = not a candidate
In all, the deposit lists about 22,000 reagents; below is an unselected part of those with a known target gene and a result. Over the whole deposit, 233 (1.1%) got an active call. 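Light values are raw, unnormalised plate reads; the ratio scores behind the reporter calls were not deposited.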 A plus sign joins genes that one reagent is predicted to hit. Not given: the amount of reagent, the time to read-out, the dose of the treatment.

| target gene | amplicon | firefly reporter light, replicate 1 | firefly reporter light, replicate 2 | Renilla control light, replicate 1 | Renilla control light, replicate 2 | activity call |
| --- | --- | --- | --- | --- | --- | --- |
| CG2006 + Spase12 | DRSC14316 | 5872 | – | 2652 | – | inactive |
| Idua (alpha-L-iduronidase) | DRSC02941 | 6219 | – | 2698 | – | inactive |
| trus (toys are us) | DRSC15772 | 10853 | – | 2163 | – | inactive |
| TBC1D5 (TBC1 domain family member 5) | DRSC16421 | 5093 | – | 2085 | – | inactive |
| CG32532 | DRSC19556 | 19049 | – | 11475 | – | inactive |
| CG32532 | DRSC19557 | 15755 | – | 10195 | – | inactive |
| CG32532 | DRSC19558 | 20616 | – | 12485 | – | inactive |
| CG32532 | DRSC21370 | 3.86e5 | 4.49e5 | 1.76e5 | 1.50e5 | inactive |
| Ilp2 (Insulin-like peptide 2) | DRSC10968 | 5000 | – | 1624 | – | inactive |
| CDK2AP1 (CDK2-associated protein 1) | DRSC19800 | 4278 | 9200 | 1360 | 3453 | inactive |
| Sb (Stubble) | DRSC16851 | 16272 | – | 4889 | – | inactive |
| GstD9 (Glutathione S transferase D9) | DRSC14185 | 9152 | – | 3520 | – | inactive |
| GalT1 (beta1,3-galactosyltransferase 1) | DRSC22238 | 4.99e5 | 4.71e5 | 1.84e5 | 1.98e5 | inactive |
| CG14006 | DRSC02338 | 1706 | 5428 | 816 | 2483 | inactive |
| CG6153 | DRSC02935 | 9941 | – | 4106 | – | inactive |
| CG10725 | DRSC09788 | 6299 | – | 2604 | – | inactive |
| SMSr (Sphingomyelin synthase related) | DRSC10998 | 8233 | – | 3377 | – | inactive |
| SMSr (Sphingomyelin synthase related) | DRSC10999 | 1708 | 6235 | 1216 | 2822 | inactive |
| CG18609 | DRSC06775 | 6733 | – | 2860 | – | inactive |
| PIG-G (Phosphatidylinositol glycan anchor biosynthesis class G) | DRSC06823 | 20471 | – | 6992 | – | inactive |
| eEF1gamma (eukaryotic translation elongation factor 1 gamma) | DRSC16659 | 6619 | – | 2320 | – | inactive |
| DIP-kappa (Dpr-interacting protein kappa) | DRSC01336 | 23523 | – | 7123 | – | inactive |
| DIP-kappa (Dpr-interacting protein kappa) | DRSC01337 | 21456 | – | 7920 | – | inactive |
| CG31016 | DRSC21359 | 6.10e5 | 6.46e5 | 2.71e5 | 2.76e5 | inactive |
| CG9330 | DRSC11066 | 13057 | – | 4999 | – | inactive |
| lncRNA:CR34047 (long non-coding RNA:CR34047) | DRSC07857 | 5602 | – | 2504 | – | inactive |
| lncRNA:CR34047 (long non-coding RNA:CR34047) | DRSC21689 | 7.82e5 | 7.29e5 | 3.71e5 | 3.24e5 | inactive |
| CG10803 | DRSC17763 | 2806 | 6269 | 1160 | 2259 | inactive |
| CG42586 + CG31775 | DRSC01413 | 23213 | 5.28e5 | 6892 | 45123 | inactive |
| CG4853 | DRSC06898 | 18234 | – | 5296 | – | inactive |
| CG10098 | DRSC12509 | 6403 | – | 2498 | – | inactive |
| CR4575 (pseudo) | DRSC18372 | 27889 | – | 11692 | – | inactive |
| RpL34a (Ribosomal protein L34a) | DRSC15964 | 22231 | – | 16166 | – | inactive |
| CG10151 | DRSC05974 | 10247 | – | 4148 | – | inactive |
| ClpX (Caseinolytic protease chaperone subunit) | DRSC15592 | 1917 | 3300 | 859 | 1480 | inactive |
| Lectin-galC1 (Galactose-specific C-type lectin) | DRSC03362 | 2669 | 5987 | 896 | 2192 | inactive |
| PGRP-SB2 (Peptidoglycan recognition protein SB2) | DRSC11092 | 6624 | – | 3337 | – | inactive |
| CG11134 | DRSC19384 | 2855 | – | 1040 | – | inactive |
| Gbeta13F (G protein beta subunit 13F) | DRSC20247 | 1467 | 6202 | 627 | 1544 | inactive |
| CG14511 | DRSC14863 | 7120 | – | 2000 | – | inactive |
| ics (icarus) | DRSC01878 | 18977 | – | 4176 | – | inactive |
| Slbp (Stem-loop binding protein) | DRSC16863 | 7076 | – | 2464 | – | inactive |
| Jon66Cii (Jonah 66Cii) | DRSC10778 | 1961 | 9543 | 852 | 3504 | inactive |
| CG3592 | DRSC18315 | 19980 | – | 13072 | – | inactive |
| CG34229 | DRSC06316 | 7914 | – | 2595 | – | inactive |
| msl-2 (male-specific lethal 2) | DRSC00829 | 19452 | – | 4072 | – | inactive |
| GstD7 (Glutathione S transferase D7) | DRSC16688 | 20649 | 8.68e5 | 6267 | 3.82e5 | inactive |
| hiw (highwire) | DRSC20338 | 33605 | – | 10477 | – | inactive |
| hiw (highwire) | DRSC20339 | 25105 | – | 7705 | – | inactive |
| CG10804 | DRSC17764 | 4144 | 8554 | 1312 | 3221 | inactive |
| CG4390 | DRSC15572 | 1824 | 5120 | 885 | 2170 | inactive |
| CG14370 | DRSC14832 | 16464 | – | 3465 | – | inactive |
| CG13614 | DRSC14617 | 11560 | – | 10116 | – | inactive |
| Cpr49Aa (Cuticular protein 49Aa) | DRSC07197 | 5860 | – | 2680 | – | inactive |
| Treh (Trehalase) | DRSC04548 | 12774 | – | 3360 | – | inactive |
| mRpL49 (mitochondrial ribosomal protein L49) | DRSC19908 | 17754 | – | 8512 | – | inactive |
| CG9636 | DRSC16529 | 8037 | – | 2759 | – | inactive |
| kl-5 (retired record) | DRSC20707 | 22486 | – | 11565 | – | inactive |
| Tango11 (Transport and Golgi organization 11) | DRSC03890 | 17507 | – | 10297 | – | inactive |
| Tango11 (Transport and Golgi organization 11) | DRSC03892 | 15136 | – | 8913 | – | inactive |
| frm (farmer) | DRSC09753 | 8551 | 7.16e5 | 3814 | 3.27e5 | inactive |
| PMCA (plasma membrane calcium ATPase) | DRSC17113 | 1868 | – | 1397 | – | inactive |
| PMCA (plasma membrane calcium ATPase) | DRSC17114 | 3744 | – | 1440 | – | inactive |
| PMCA (plasma membrane calcium ATPase) | DRSC17154 | 2524 | 4636 | 969 | 1890 | inactive |
| RIC-3 (RIC3 acetylcholine receptor chaperone) | DRSC04243 | 16237 | – | 4036 | – | inactive |
| RIC-3 (RIC3 acetylcholine receptor chaperone) | DRSC04543 | 4264 | 14217 | 1116 | 4587 | inactive |
| ouib (ouija board) | DRSC14376 | 16118 | – | 3939 | – | inactive |
| CG34325 | DRSC19802 | 23096 | – | 9530 | – | inactive |
| CG34325 | DRSC20200 | 25776 | – | 10064 | – | inactive |
| Set8 (SET domain containing 8) | DRSC15473 | 3517 | – | 2194 | – | inactive |
| Ir47a (Ionotropic receptor 47a) | DRSC06215 | 1917 | 6950 | 524 | 2791 | inactive |
| CG1695 | DRSC20538 | 21002 | – | 12148 | – | inactive |
| Utx (Utx histone demethylase) | DRSC02872 | 3186 | 5797 | 1298 | 3684 | inactive |

Quoted from the entries so far for reference:
| target gene | amplicon | firefly reporter light, replicate 1 | firefly reporter light, replicate 2 | Renilla control light, replicate 1 | Renilla control light, replicate 2 | activity call |
| --- | --- | --- | --- | --- | --- | --- |
| Idua (alpha-L-iduronidase) | DRSC02941 | 6219 | – | 2698 | – | inactive |
| trus (toys are us) | DRSC15772 | 10853 | – | 2163 | – | inactive |
| TBC1D5 (TBC1 domain family member 5) | DRSC16421 | 5093 | – | 2085 | – | inactive |
| CG32532 | DRSC19556 | 19049 | – | 11475 | – | inactive |
| CG32532 | DRSC19557 | 15755 | – | 10195 | – | inactive |
| CG32532 | DRSC19558 | 20616 | – | 12485 | – | inactive |
| CG32532 | DRSC21370 | 3.86e5 | 4.49e5 | 1.76e5 | 1.50e5 | inactive |
| Ilp2 (Insulin-like peptide 2) | DRSC10968 | 5000 | – | 1624 | – | inactive |
| CDK2AP1 (CDK2-associated protein 1) | DRSC19800 | 4278 | 9200 | 1360 | 3453 | inactive |
| Sb (Stubble) | DRSC16851 | 16272 | – | 4889 | – | inactive |
| GstD9 (Glutathione S transferase D9) | DRSC14185 | 9152 | – | 3520 | – | inactive |
